Patent US20220025037A1 (DRAGONFLY THERAPEUTICS, published 2022)
Results are given in words; binding and its absence hold for the method and conditions named. Some binding calls cover weakened binding; strength is not graded here.

Amino acid sequences for entries named in this document (tags omitted). A change or cut given only in a name is not applied to a line headed by its entry. Chains listed by the source or under a name are the forms on record and can include a tag or linker. Residues count along the entry.
UniProt Q9NYJ7: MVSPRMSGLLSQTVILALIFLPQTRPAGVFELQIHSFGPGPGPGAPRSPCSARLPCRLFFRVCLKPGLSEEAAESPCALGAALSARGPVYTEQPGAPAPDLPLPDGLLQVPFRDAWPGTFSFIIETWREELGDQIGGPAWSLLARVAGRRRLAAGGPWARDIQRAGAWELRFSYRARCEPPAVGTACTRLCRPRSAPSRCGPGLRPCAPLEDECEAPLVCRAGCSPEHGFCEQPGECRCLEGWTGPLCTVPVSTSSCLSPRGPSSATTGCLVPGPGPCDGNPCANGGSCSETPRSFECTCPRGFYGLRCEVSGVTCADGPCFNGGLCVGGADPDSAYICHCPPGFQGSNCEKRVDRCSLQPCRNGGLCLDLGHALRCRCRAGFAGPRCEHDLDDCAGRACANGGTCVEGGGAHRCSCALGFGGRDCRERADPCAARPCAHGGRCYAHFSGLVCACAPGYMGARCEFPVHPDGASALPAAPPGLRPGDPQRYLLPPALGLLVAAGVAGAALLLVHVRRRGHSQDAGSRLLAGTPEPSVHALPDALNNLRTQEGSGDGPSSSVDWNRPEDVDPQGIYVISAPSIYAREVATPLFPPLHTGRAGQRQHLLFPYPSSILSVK
DLL3 expressed on NCI-H82 cells: residues 27-618 of Q9NYJ7
recombinant human DLL3 (ELISA coat): residues 27-492 of Q9NYJ7
recombinant His-tagged EGF2-6 domains of human DLL3: residues 274-492 of Q9NYJ7
recombinant His-tagged EGF3-6 domains of human DLL3: residues 312-492 of Q9NYJ7
recombinant His-tagged EGF4-6 domains of human DLL3: residues 353-492 of Q9NYJ7

Tests used:
[1] = target: recombinant human DLL3 (ELISA coat) (human) (UniProt Q9NYJ7); assay: ELISA, plate coated with recombinant human DLL3 at 0.5 ug/ml, anti-mouse IgG-HRP/TMB, signal as % of positive control max
[2] = target: DLL3 expressed on NCI-H82 cells (human) (UniProt Q9NYJ7); assay: flow cytometry on NCI-H82 cells, antibody at 2 ug/mL, fluorophore-conjugated anti-mouse IgG secondary
[3] = target: ECD of human DLL3 (Adipogen AG-40B-0151, FLAG-tag) (human) (UniProt Q9NYJ7); assay: SPR binning (Biacore 8K), 25 C, 2F7 captured on anti-mouse Fc, then DLL3 ECD, then Stemcentrx antibody
[4] = target: DLL3 expressed on NCI-H82 cells (human) (UniProt Q9NYJ7); assay: flow cytometry on NCI-H82 cells, serial dilution from 2 ug/mL, fluorophore-conjugated anti-mouse IgG secondary, MFI
[5] = target: DLL3 expressed on NCI-H82 cells (human) (UniProt Q9NYJ7); assay: flow cytometry on NCI-H82 cells, anti-mouse IgG secondary
[6] = target: ECD of human DLL3 (Adipogen AG-40B-0151, FLAG-tag) (human) (UniProt Q9NYJ7); assay: SPR (Biacore 8K), 37 C, antibody captured on anti-mouse Fc, hDLL3 ECD injected at several concentrations
[7] = target: recombinant human DLL3 (ELISA coat) (human) (UniProt Q9NYJ7); assay: ELISA on coated recombinant human DLL3
[8] = target: recombinant His-tagged EGF2-6 domains of human DLL3 (human) (UniProt Q9NYJ7); assay: SPR (Biacore 8K), 37 C, 5E7 captured on anti-mouse Fc, DLL3 construct injected
[9] = target: recombinant His-tagged EGF4-6 domains of human DLL3 (human) (UniProt Q9NYJ7); assay: as above
[10] = target: recombinant His-tagged EGF3-6 domains of human DLL3 (human) (UniProt Q9NYJ7); assay: as above
[11] = target: recombinant His-tagged EGF2-6 domains of human DLL3 (human) (UniProt Q9NYJ7); assay: SPR, 37 C, His-tagged DLL3 domains
[12] = target: recombinant His-tagged EGF4-6 domains of human DLL3 (human) (UniProt Q9NYJ7); assay: SPR, 37 C, His-tagged DLL3 domains
[13] = target: recombinant His-tagged EGF3-6 domains of human DLL3 (human) (UniProt Q9NYJ7); assay: SPR, 37 C, His-tagged DLL3 domains
[14] = target: ECD of human DLL3 (Adipogen AG-40B-0151, FLAG-tag) (human) (UniProt Q9NYJ7); assay: SPR binning (Biacore 8K), 25 C, 9E6 captured on anti-mouse Fc, then DLL3 ECD, then Stemcentrx antibody

Measured: binding

B1: murine anti-DLL3 antibody clone 2F7 (antibody, V domains shown)
VH: QVQLQQSGAELMKPGASVKLSCKATGYTFTGYWIDWIKQRPGHGLEWVGEILPGSDNINYNEKFRGKATFTADTSSNTAYIQLSSLTTEDSAIYFCARCGTGPWFTYWGQGTLVTVSA
VL: NIMMTQSPSSLAVSAGEKVTMSCKSSQSVLYSSNQKNYLAWYQQKPGQSPRLLIYWASTRASGVPDRFTGSGSGTDFTLTITNIQPEDLAVYYCHQFLSSTWTFGGGTKLEIK
binds: [1] | [2] | [3] | [4] | [5] | [6] | [7]

B2: murine anti-DLL3 antibody clone 5E7 (antibody, V domains shown)
VH: EVQLQQSGAELVRPGASVKLSCTASGFNIKDDYIHWVKQWPEQGLEWIGWIDSENGDTEYASKFQGKATMTADTSSNTAYLQLSGLTSEDTAVYYCTTSSYYSYDLFVYWGQGTLVTVSA
VL: DVLMTQTPLTLSVPIGQPASISCKSSQSLLHSNGKTYLNWLLQRPGQSPKLLIYLVSKLESGVPDRFSGSGSGTDFTLKISRVEAEDLGVYYCLQTTHLYTFGGGTKLEIK
notes: Mouse hybridoma antibody, captured by anti-mouse Fc; also called m5E7; murine 5E7
binds: [8] | [9] | [10] | [11] | [12] | [13]

B3: murine anti-DLL3 antibody clone 9E6 (antibody, V domains shown)
VH: QLQLVQSGPELMRPGETVKISCKASGYTFTTYGMNWVKQAPGKGLKWVGWINTYSGVPTYADDFKGRFAFSLESSASTAFLQINNLKDEDTATYFCARFGNYGFDCWGQGTTLTVSS
VL: DIVMTQSPSSLSVSAGEKVTMSCKSSQSLLNSGNQKNYLAWYQQKPGQPPKLLIYGASTRESGVPDRFTGSGSGTDFTLTISSVQAEDLAVYYCQNDHIYPYTFGGGTKLEIK
binds: [1] | [2] | [4] | [14] | [5] | [6] | [7]

B4: murine anti-DLL3 antibody clone 10F5 (antibody, V domains shown)
VH: B3 VH
VL: B3 VL
binds: [1] | [2] | [4] | [5] | [7]
